These are yes or no findings as the source states them, for the method shown. Binding seen in cells or lysates may run through a third protein. Some entries that bind do so weakly or less than the wild type.

Protein sequences, listed by entry. Tags and fused reporters are not part of them.
UniProt P21554: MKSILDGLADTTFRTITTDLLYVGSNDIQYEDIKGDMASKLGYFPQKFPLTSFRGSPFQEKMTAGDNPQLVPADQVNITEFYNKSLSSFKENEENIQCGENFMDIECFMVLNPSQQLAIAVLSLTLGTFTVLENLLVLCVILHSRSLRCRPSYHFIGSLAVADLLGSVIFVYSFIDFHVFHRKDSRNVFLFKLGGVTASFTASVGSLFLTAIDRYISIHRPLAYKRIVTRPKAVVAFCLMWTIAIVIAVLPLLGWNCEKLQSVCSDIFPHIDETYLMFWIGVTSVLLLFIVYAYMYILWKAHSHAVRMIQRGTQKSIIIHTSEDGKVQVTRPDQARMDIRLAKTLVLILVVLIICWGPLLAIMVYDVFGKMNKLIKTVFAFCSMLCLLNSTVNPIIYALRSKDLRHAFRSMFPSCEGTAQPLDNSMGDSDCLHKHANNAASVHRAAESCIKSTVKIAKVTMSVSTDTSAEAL
UniProt P34972: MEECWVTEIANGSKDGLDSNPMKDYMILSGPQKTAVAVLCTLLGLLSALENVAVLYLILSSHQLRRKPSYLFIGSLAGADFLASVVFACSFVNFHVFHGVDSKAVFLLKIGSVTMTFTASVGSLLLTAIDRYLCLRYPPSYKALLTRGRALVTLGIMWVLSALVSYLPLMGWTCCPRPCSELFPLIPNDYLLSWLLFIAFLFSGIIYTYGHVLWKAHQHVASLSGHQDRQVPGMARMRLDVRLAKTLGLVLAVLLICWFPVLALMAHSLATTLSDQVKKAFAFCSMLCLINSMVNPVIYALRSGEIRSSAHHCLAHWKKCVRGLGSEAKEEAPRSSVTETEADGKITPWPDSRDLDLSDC
UniProt P49407: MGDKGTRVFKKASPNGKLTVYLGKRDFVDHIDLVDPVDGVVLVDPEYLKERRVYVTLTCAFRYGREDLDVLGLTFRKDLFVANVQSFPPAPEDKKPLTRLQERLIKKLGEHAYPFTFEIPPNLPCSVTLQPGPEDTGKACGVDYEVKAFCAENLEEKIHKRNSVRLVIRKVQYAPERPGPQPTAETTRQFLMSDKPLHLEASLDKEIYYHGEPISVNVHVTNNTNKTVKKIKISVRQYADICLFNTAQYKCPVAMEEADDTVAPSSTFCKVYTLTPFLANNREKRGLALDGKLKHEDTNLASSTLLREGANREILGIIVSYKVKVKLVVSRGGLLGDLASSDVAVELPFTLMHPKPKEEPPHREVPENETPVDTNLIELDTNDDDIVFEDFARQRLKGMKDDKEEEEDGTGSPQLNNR
UniProt P32121: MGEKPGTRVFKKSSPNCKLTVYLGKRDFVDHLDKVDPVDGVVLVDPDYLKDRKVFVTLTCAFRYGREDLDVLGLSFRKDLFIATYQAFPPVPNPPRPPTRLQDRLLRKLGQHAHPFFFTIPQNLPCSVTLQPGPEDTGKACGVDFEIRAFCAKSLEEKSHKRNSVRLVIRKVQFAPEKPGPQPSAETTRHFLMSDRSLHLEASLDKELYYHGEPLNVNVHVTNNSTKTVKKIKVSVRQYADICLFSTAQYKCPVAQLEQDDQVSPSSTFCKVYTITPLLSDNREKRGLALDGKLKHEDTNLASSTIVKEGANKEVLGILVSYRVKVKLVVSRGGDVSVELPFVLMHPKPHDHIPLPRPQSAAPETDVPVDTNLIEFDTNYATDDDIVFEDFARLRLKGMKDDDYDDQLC

In test [1] the target is human type 1 cannabinoid receptor-green fluorescent protein2 C-terminal fusion protein (human) (UniProt P21554). As to the kind of experiment: FRET or BRET; BRET2 in HEK293A cells co-expressing receptor-GFP2 and βarrestin1-Rluc, 48 h after transfection, in BRET buffer, coelenterazine 400a 50 μM; cells treated 30 min with 1 nM-10 μM CP55940 ± 1 μM indomethacin, or 1 nM-10 μM indomethacin ± 500 nM CP55940; data as % of the maximal response to CP55940. (In general: In BRET a luciferase serves as donor, and the signal depends on an acceptor being close.)

The target in test [2] is human type 2 cannabinoid receptor-green fluorescent protein2 C-terminal fusion protein (human) (UniProt P34972). The test is described as above.
Test [3] addresses human CB1R stably expressed in PathHunter (βarrestin2) CHO-K1 cells (human) (UniProt P21554). As to the kind of experiment: split reporter; DiscoveRx PathHunter βarrestin2 assay in hCB1R CHO-K1 cells, ligands (CP55940, AEA, indomethacin, 100 nM CP55940 or AEA + indomethacin) 90 min at 37°C, chemiluminescence; data as % of the maximal response to CP55940.

For “human βarrestin1-Renilla luciferase II C-terminal fusion protein (from UniProt P49407 1-418)”, the binding entry in test [1] and in test [2] was “binds” in each case.

Take “βarrestin2 of the PathHunter CHO-K1 cells (from UniProt P32121 1-409)”: the binding result in test [3] is recorded as “binds”.
